Measurements as given in PMC10491636.
Results are given in words; binding and its absence hold for the method and conditions named. For some assays here: In cells and extracts the contact can be indirect. Some results given as binding are weak or reduced against the parent protein; the word gives no strength.

Chains of the proteins cited; added tags and fusions are not shown.
UniProt P40763: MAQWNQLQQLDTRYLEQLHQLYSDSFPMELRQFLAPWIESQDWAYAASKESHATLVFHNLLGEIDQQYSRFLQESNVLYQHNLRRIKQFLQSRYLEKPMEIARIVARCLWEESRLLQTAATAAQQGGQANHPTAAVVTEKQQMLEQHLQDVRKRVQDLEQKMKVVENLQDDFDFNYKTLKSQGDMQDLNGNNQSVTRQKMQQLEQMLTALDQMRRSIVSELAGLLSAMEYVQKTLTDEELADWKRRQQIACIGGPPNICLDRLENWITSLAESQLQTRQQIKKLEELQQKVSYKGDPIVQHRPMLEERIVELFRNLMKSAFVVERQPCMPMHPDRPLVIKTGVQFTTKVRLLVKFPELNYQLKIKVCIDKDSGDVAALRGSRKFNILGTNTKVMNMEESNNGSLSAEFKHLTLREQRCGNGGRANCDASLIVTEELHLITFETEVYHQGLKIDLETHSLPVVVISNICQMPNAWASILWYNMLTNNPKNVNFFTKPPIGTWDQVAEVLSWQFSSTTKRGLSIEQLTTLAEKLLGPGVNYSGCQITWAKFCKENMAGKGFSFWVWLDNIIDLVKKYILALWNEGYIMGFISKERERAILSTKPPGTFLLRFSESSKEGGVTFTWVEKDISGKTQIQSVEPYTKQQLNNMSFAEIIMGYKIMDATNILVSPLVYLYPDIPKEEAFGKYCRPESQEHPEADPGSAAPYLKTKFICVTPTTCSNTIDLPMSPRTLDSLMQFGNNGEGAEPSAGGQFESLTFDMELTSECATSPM
UniProt Q99570: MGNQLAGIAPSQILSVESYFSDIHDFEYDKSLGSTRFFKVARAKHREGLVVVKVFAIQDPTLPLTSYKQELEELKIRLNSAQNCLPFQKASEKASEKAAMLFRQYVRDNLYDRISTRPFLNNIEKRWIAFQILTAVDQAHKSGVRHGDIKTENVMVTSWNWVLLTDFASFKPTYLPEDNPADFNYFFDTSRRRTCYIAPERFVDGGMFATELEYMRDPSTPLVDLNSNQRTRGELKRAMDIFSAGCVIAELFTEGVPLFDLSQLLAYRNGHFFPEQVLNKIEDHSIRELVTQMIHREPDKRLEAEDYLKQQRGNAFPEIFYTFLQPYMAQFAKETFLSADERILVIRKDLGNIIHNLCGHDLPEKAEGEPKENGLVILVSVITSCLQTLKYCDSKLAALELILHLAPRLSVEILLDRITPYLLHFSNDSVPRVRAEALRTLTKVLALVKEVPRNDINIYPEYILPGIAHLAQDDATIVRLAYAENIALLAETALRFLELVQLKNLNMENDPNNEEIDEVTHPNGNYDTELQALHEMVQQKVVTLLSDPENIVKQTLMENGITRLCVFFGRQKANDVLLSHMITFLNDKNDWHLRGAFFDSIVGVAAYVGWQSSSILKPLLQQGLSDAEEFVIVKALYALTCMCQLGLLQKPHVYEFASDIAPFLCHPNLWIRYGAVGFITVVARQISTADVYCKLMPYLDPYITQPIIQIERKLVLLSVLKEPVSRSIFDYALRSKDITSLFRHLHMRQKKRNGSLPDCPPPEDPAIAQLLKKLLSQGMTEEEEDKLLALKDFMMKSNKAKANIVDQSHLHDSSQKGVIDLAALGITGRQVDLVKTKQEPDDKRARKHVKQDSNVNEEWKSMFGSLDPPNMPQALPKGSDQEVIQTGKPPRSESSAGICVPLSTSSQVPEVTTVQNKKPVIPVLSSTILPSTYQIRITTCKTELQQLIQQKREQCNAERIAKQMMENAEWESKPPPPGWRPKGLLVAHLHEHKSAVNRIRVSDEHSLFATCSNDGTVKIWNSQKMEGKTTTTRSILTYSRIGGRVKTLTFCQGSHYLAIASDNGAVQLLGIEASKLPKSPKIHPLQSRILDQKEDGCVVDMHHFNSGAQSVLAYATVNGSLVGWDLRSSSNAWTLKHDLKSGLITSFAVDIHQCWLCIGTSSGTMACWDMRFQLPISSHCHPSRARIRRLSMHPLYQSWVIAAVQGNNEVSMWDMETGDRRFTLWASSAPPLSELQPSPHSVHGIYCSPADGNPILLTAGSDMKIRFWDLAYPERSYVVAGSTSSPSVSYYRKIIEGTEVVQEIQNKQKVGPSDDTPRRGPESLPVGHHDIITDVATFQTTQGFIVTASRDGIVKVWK

Columns and labels:
[1] = molecular target: BD-STAT3 (STAT3 in pGBKT7, two-hybrid bait) (UniProt P40763); experiment: two-hybrid; yeast strain AH109 co-transformed with bait (pGBKT7) and prey (pGADT7); growth on SD-Leu-Trp-Ade-His with X-α-gal
[2] = molecular target: STAT3 BiFC fusion (in VN155 and VC155) (UniProt P40763); experiment: split reporter; BiFC with VN155/VC155 fusions in HUVECs, 36 h after transfection, then 25 °C for 8 h, fixed, microscopy

| Substance | binding [1] | binding [2] |
| --- | --- | --- |
| AD-PIK3R4 (PIK3R4 fused to the Gal4 activation domain, two-hybrid prey) (from UniProt Q99570 1-1358) | binds | – |
| PIK3R4 BiFC fusion (in VN155 and VC155) (from UniProt Q99570 1-1358) | – | binds |
